Source: US10327448B2, “Bacterium of Bacillus genus and uses thereof” (priority 2014, dated 2019)
At least one compound was matched to its structure with a doubt left.

Tested on: Bacillus subtilis ssp. shriramensis (MTCC-5674)
Assay: Antibiotic sensitivity test (antibiotic discs on T3 agar)
Assay type: cell-based
Conditions: antibiotic disc on T3 agar, 30° C. for 24 hours
Description: Different antibiotic discs were placed on the surface of the T3 agar plates labelled with the respective antibiotic. The plates were incubated at 30° C. for 24 hours.

SMILES: NC[C@H]1O[C@H](O[C@H]2[C@H](O)[C@@H](O[C@H]3O[C@H](CO)[C@@H](O)[C@H](N)[C@H]3O)[C@H](N)C[C@@H]2N)[C@H](O)[C@@H](O)[C@@H]1O [Kanamycin]
- antibiotic sensitivity of the bacterium, in words: resistant
